Source: patent publication US20050271739A1, “Methods and compositions for accelerating alcohol metabolism” (priority 2004, published 2005)

System: alcohol dehydrogenase
Assay: Effect of hormonal compounds on enzyme activity of alcohol dehydrogenase
Format: biochemical
Parameters: concentration or dose not given beside the values
Conditions: Control = 100.0

Relative activity (%): 259%
SMILES: CC/C(=C(/CC)c1ccc(O)cc1)c1ccc(O)cc1 [Diethylstilbestrol]
